This is one part of the list.

Protein sequences, listed by entry. Tags and fused reporters are not part of them.
UniProt Q0JBA9, entry or part of it: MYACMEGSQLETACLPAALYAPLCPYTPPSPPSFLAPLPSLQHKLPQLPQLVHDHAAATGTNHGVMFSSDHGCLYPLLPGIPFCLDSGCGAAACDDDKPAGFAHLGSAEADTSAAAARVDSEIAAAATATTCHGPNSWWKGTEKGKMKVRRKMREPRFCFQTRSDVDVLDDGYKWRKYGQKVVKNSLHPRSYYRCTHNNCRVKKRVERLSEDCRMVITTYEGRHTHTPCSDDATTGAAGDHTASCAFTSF

This assay addresses OsWRKY34 (Oryza sativa, UniProt Q0JBA9 1-250). In words: protein-binding microarray (RPBM); PBS, 2% BSA, 51.3 ng/ul salmon testes DNA, 50 uM zinc acetate, 200 nM TF, 25 C, 1 h; high values mean tight binding. To be noted: protein: recombinant; tags: N-terminal polyhistidine and DsRed monomer fusion (pET32a); label: CyDye5-dUTP incorporated in the synthesized complementary strand; 3' TTTTT single-stranded linker to array surface; dsDNA, one strand shown. An outline of the steps: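 In PBS with 2% BSA, salmon testes DNA and 50 µM zinc acetate, 200 nM protein was incubated on a custom Agilent array at 25 °C for 1 h and then washed off. The array had been made double-stranded by primer extension with Cy5-dUTP and blocked with 2% BSA. The proteins were transcription factors fused N-terminally to polyhistidine and DsRed, expressed in E. coli BL21-CodonPlus and purified on Ni–NTA. The binding signal is per-feature fluorescence intensity (arbitrary units) from an Axon 4000B scanner.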
With “TGATGCTAACCCATTTGTCACTGTATGTCTTGCATTGTGTCGGAGTCACCTAGTGCAG”, the binding signal is 9570 fluorescence intensity (a.u.).
For the sequence “GCTCCGCTGCTCTTGTGCTTCGCGCCTCGCCTGACCTCGCCGGAGTCACCTAGTGCAG”, the binding signal is 11300 fluorescence intensity (a.u.).
For “AATCCCTGTCTAAACTATTTTTTGCAACTTGCGCCTTGAACGGAGTCACCTAGTGCAG”, the binding signal is 8950 fluorescence intensity (a.u.).
Under “CTCTGCCTCGCCTAATCCAGCGCAACACCACGCCGTCCACCGGAGTCACCTAGTGCAG” stands 8790 fluorescence intensity (a.u.); under “TGGTGGTTTTCGTCGTCGTCGTCGTCGTCGGCTTCATATACGGAGTCACCTAGTGCAG”, 10100 fluorescence intensity (a.u.).
In the case of “GGGGTAAGGCAGTGTTTGCGGTGTTTGATCGGAACCTGTTCGGAGTCACCTAGTGCAG”, the binding signal was 10100 fluorescence intensity (a.u.).
For “ACTGCCTTTGTTTCTTGTGTAGCACAGGGATGCAAACGTACGGAGTCACCTAGTGCAG”, the binding signal was 10000 fluorescence intensity (a.u.).
Turning to “AAGTGTGAATTTTCCTTTTCTTTTAGAGTTACCCTGGTCTCGGAGTCACCTAGTGCAG”, the binding signal is 8160 fluorescence intensity (a.u.).
For the sequence “GCCGCCGCCTCCGCCGCCGCCGATCCCCATCCATCCCGCGCGGAGTCACCTAGTGCAG”, the binding signal was 10500 fluorescence intensity (a.u.).
For the sequence “TTTACGCTTCCCCGTCTCCGCCTCCACCTCGAATCCTTCTCGGAGTCACCTAGTGCAG”, the binding signal was 9180 fluorescence intensity (a.u.).
As for “TCATAATGGTCACACGATGGCTATATTTCGTCGGCTTATTCGGAGTCACCTAGTGCAG”, the binding signal was 8750 fluorescence intensity (a.u.).
As for “GCGTTTCGCCGGAGCTCTCCTCGCATCTCACTGCCGCTCCCGGAGTCACCTAGTGCAG”, the binding signal was 9270 fluorescence intensity (a.u.).
Regarding “GGTCAAATTTCTTCGGCGATAAGCTACGTGCCTATATATACGGAGTCACCTAGTGCAG”, the binding signal was 8280 fluorescence intensity (a.u.).
In the case of “AACGTTTATCCGCTCATACATAGATGTTGGCGTGTTTTTGCGGAGTCACCTAGTGCAG”, the binding signal was 8930 fluorescence intensity (a.u.).
Regarding “CATATAGTAGCGGTGGTGTGGAGAGTGTTTGTATTTCTGTCGGAGTCACCTAGTGCAG”, the binding signal was 8210 fluorescence intensity (a.u.).
As for “CTCCCAACGGTTATTTTCAAATTTGAACGGTCAAATAGCCCGGAGTCACCTAGTGCAG”, the figure is 9460 fluorescence intensity (a.u.); as for “GGAGCACTTTTATCCCTTATTGGGGTTGGTATTCTGGAGTCGGAGTCACCTAGTGCAG”, 10400 fluorescence intensity (a.u.).
As for “ACATATTTCTTGTTGTTTGTGCGCTGATGTACATCACTTCCGGAGTCACCTAGTGCAG”, the binding signal is 14600 fluorescence intensity (a.u.).
Take “GTCAACTAATAATAAACTGACGGGAGGGGCATGGAATAAACGGAGTCACCTAGTGCAG”: the binding signal is 8640 fluorescence intensity (a.u.).
As for “GTTGTTTTTATCTTTACTTTTTTTTTGGCAAATTTATAGCCGGAGTCACCTAGTGCAG”, the binding signal was 10400 fluorescence intensity (a.u.).
As for “GACGCCTCGCTATTCTCGTCACACATTCGTTTTCCATCCTCGGAGTCACCTAGTGCAG”, the binding signal was 10700 fluorescence intensity (a.u.).
For “TTTTTTTCGCCCTTCTTTACTGGTTTTTTGTTTTCTTATCCGGAGTCACCTAGTGCAG”, the binding signal is 10500 fluorescence intensity (a.u.).
In the case of “GACGCCCAAATCCCATCGCCTCCAATCCTGTCTACAGACGCGGAGTCACCTAGTGCAG”, the binding signal is 8780 fluorescence intensity (a.u.).
As for “TCATGGGAGCAATTGCGCGATGTTTTTGTTCTTAACTTTCCGGAGTCACCTAGTGCAG”, the figure is 8050 fluorescence intensity (a.u.).
Consider “CATACCACTCCCGTCGGTTTTTCTGTCATCCTCTCTCACGCGGAGTCACCTAGTGCAG”, for which the binding signal is 8680 fluorescence intensity (a.u.).
In the case of “GGAGATCCTGAGGCAGCGGGGAGAGGGGAGGTGGGCGATGCGGAGTCACCTAGTGCAG”, the binding signal is 10500 fluorescence intensity (a.u.).
As for “GCCAAACTCATCACCTGCCAAGCCCATAGCATGTGTTCCACGGAGTCACCTAGTGCAG”, the figure is 8760 fluorescence intensity (a.u.); as for “GAGAGCTTTGCGGCGGGCATGCGGGTGGGGATTCACCGCGCGGAGTCACCTAGTGCAG”, 10600 fluorescence intensity (a.u.).
For the sequence “TCCTGGCCCATTTTCATTCACTCAGATGGTCTCATATATCCGGAGTCACCTAGTGCAG”, the binding signal is 8440 fluorescence intensity (a.u.).
As for “CTGTTGCTCTCAACGACAATACATGTCTCCATACCACATCCGGAGTCACCTAGTGCAG”, the figure is 8160 fluorescence intensity (a.u.); as for “TCCCTGATCATTCCTGGCTGGTTCGTACGTTGTGATTGATCGGAGTCACCTAGTGCAG”, 10300 fluorescence intensity (a.u.).
Consider “CGGTCTCGGTCTCCGCCTCCCGCGCCGCGGCCACGCCATGCGGAGTCACCTAGTGCAG”, for which the binding signal was 8150 fluorescence intensity (a.u.).
With “TCTAACAATATTGTTCTGTGTCAACAAAGATCTTGTCACTCGGAGTCACCTAGTGCAG”, the binding signal was 8530 fluorescence intensity (a.u.).
Regarding “TATCTCCTCGTCTCCTCTCTATCGCCGCACGCGCTTCCTCCGGAGTCACCTAGTGCAG”, the binding signal is 11700 fluorescence intensity (a.u.).
Under “ATTTAGTCCTAGCCATTCATCCATTTCCCTTTGACAATCCCGGAGTCACCTAGTGCAG” stands 10600 fluorescence intensity (a.u.).
As to “AGGTGTAATACCCTACTCCTGTGTGTCGATGTTCGTTGTCCGGAGTCACCTAGTGCAG”, the binding signal was 9280 fluorescence intensity (a.u.).
Under “CACGTCACTTGTATTCACTAACACAATCTCTCATTAGACTCGGAGTCACCTAGTGCAG” stands 10300 fluorescence intensity (a.u.).
“CATAACTGATCACTTTCCTGCATATCCAGCATATATATACCGGAGTCACCTAGTGCAG”: the binding signal is 9160 fluorescence intensity (a.u.).
As for “CCAGGCTTTGCGCGTCTATTCTGCCCTTTCTCCAACTCTTCGGAGTCACCTAGTGCAG”, the figure is 8220 fluorescence intensity (a.u.); as for “TGTGCGTGCTGTTGCTTTTTTGGATCTGGTGTGTTAGTTTCGGAGTCACCTAGTGCAG”, 11600 fluorescence intensity (a.u.); as for “TACATACTCCTACTCCGTAGTTTGCTGCTTTGTTGGATTCCGGAGTCACCTAGTGCAG”, 12900 fluorescence intensity (a.u.).
On to “TTTTATACGGTTGGTTCCTATGTTCTCCTAAGTGTGAAAACGGAGTCACCTAGTGCAG”, for which the binding signal was 9200 fluorescence intensity (a.u.).

Values taken from paper PMC7819943, “Rice protein-binding microarrays: a tool to detect cis-acting elements near promoter regions in rice”.
